Here are results for one compound from PMC12040169 (PLOS Biology, 2025).

By viability is commonly meant a read-out of living cells in per cent, often relative to untreated cells. A higher viability goes with better survival.

The data set in a line: in vitro. Particulars: human, hela cells, % viability.

Consider `O=C(O)COCCN1CCN(C(c2ccccc2)c2ccc(Cl)cc2)CC1` (stereo not shown) [CBK201109], for which the viability at 28.5 h, 10 µM amounted to 87.4%.
